{
  "sequences": {"note": "Sequences of proteins named here, by UniProt entry; tags and fusion partners are left off. Residues count along the entry.", "UniProt Q96EB6, 2-747 limits assumed": "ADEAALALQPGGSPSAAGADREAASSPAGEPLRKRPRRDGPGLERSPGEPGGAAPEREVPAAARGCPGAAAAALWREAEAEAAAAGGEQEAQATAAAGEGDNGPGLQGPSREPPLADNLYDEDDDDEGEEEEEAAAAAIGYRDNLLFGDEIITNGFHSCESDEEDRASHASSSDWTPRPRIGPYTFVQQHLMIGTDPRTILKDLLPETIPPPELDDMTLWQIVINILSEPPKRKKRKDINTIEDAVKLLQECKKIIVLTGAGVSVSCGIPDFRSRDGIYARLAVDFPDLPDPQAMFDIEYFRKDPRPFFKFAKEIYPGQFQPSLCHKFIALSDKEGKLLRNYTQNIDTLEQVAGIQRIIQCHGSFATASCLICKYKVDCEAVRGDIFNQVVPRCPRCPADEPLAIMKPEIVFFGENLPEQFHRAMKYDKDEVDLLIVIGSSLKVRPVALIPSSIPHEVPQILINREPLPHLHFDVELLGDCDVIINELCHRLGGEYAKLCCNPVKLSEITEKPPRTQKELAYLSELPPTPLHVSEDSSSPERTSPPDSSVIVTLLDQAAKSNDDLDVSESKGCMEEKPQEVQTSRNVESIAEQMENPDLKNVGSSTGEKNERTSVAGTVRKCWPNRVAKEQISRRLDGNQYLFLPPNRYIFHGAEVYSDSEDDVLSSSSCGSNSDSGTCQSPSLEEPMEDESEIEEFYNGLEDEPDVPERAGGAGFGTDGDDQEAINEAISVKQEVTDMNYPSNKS"},
  "source": "paper PMC6925144",
  "about": "“A prospective compound screening contest identified broader inhibitors for Sirtuin 1” (Scientific Reports, 2019)",
  "note": "Over roughly 3,200 compounds, “TSA(without NAD+) / Primary screening (TSA) / delta Tm (K)” has its median near -0.07; the highest 2% begin near 0.37. The list shows a part of the results.",
  "data": [
    {"biological_target": "NAD-dependent deacetylase Sirtuin 1 (human, UniProt Q96EB6)", "assay": "primary screen, delta tm", "design": "single well (n = 1)", "settings": "10 µM", "how_it_was_run": "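Thermal shift of Sirtuin 1 measured without NAD+, compound at 10 µM (n = 1); value is ΔTm, with hits defined as ΔTm > 0.45 K or < −1.5 K. Hits retested at 5, 10, 20 µM (n = 4) and counterscreened on bovine carbonic anhydrase and ABL1 SH2 domain.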", "units": {"TSA(without NAD+) / Primary screening (TSA) / delta Tm (K)": "K"}, "values": [
      {"smiles": "CN(c1ccc(Oc2ccccc2)cc1)S(=O)(=O)c1cc(C(N)=O)n(C)c1", "TSA(without NAD+) / Primary screening (TSA) / delta Tm (K)": -0.22},
      {"smiles": "Cc1nc(N2CCN(C(=O)CCc3ccccc3)CC2)c2cc[nH]c2n1", "TSA(without NAD+) / Primary screening (TSA) / delta Tm (K)": -0.05},
      {"smiles": "CCOc1cccc(C=C2C(=O)NC(=S)NC2=O)c1", "TSA(without NAD+) / Primary screening (TSA) / delta Tm (K)": 0.15},
      {"smiles": "CC(CNS(=O)(=O)c1ccc(CCC(=O)O)cc1)c1nc2ccccc2n1C(F)F", "note": "(centres unmarked)", "TSA(without NAD+) / Primary screening (TSA) / delta Tm (K)": -0.03},
      {"smiles": "CCC(C)c1ccc(C(Nc2ccc3nnnn3n2)C(C)C)cc1", "note": "(centres unmarked)", "TSA(without NAD+) / Primary screening (TSA) / delta Tm (K)": 0.16},
      {"smiles": "NC(=O)C1CN(c2nc(C3CC3)nc3sc4c(c23)CCCC4)CCO1", "note": "(centres unmarked)", "TSA(without NAD+) / Primary screening (TSA) / delta Tm (K)": -0.13},
      {"smiles": "CC(C)CNc1ncnc2c1oc1ccccc12", "TSA(without NAD+) / Primary screening (TSA) / delta Tm (K)": 0.02},
      {"smiles": "CCCCn1nnnc1COC(=O)c1cccc(S(=O)(=O)N(C)c2cccc(Cl)c2)c1", "TSA(without NAD+) / Primary screening (TSA) / delta Tm (K)": 0.03},
      {"smiles": "CCN(CC)c1ncnc2c1oc1ccccc12", "TSA(without NAD+) / Primary screening (TSA) / delta Tm (K)": 0.17},
      {"smiles": "O=C(O)c1ccc(S(=O)(=O)N2CCC(c3ccccc3)C2)c(F)c1", "note": "(centres unmarked)", "TSA(without NAD+) / Primary screening (TSA) / delta Tm (K)": -0.17},
      {"smiles": "COc1cc(CN(C)C(=O)Cn2cnc3ccccc3c2=O)ccc1OCc1ccccc1", "TSA(without NAD+) / Primary screening (TSA) / delta Tm (K)": 0.36},
      {"smiles": "CCC(=O)NC(C)C(=O)NCC1CCCO1", "note": "(centres unmarked)", "TSA(without NAD+) / Primary screening (TSA) / delta Tm (K)": -0.22},
      {"smiles": "NS(=O)(=O)Cc1cccc(Cl)c1", "TSA(without NAD+) / Primary screening (TSA) / delta Tm (K)": 0.06},
      {"smiles": "NC(=O)C1CCN(C(=O)c2ccc(-c3ccc(Cl)cc3)s2)C1", "note": "(centres unmarked)", "TSA(without NAD+) / Primary screening (TSA) / delta Tm (K)": -0.05},
      {"smiles": "Cc1ccc([N+](=O)[O-])cc1S(=O)(=O)Nc1ccc(C(=O)OC(C)C(=O)NC23CC4CC(CC(C4)C2)C3)cc1", "note": "(centres unmarked)", "TSA(without NAD+) / Primary screening (TSA) / delta Tm (K)": 0.86},
      {"smiles": "CCC(=O)N(c1nn(CN(C)Cc2c(C)nn(C3CCS(=O)(=O)C3)c2C)c(=S)s1)C1CC1", "note": "(centres unmarked)", "TSA(without NAD+) / Primary screening (TSA) / delta Tm (K)": -0.07},
      {"smiles": "O=C(Cc1c(Cl)cccc1Cl)Nc1ccc(N2CCN(Cc3ccccc3)CC2)cc1", "TSA(without NAD+) / Primary screening (TSA) / delta Tm (K)": 0.08},
      {"smiles": "CCN(CC)CCCNC(=O)Nc1ccc(S(N)(=O)=O)cc1", "TSA(without NAD+) / Primary screening (TSA) / delta Tm (K)": -0.23},
      {"smiles": "CNC(=O)CN(Cc1ccccc1)S(=O)(=O)c1ccc(Cl)cc1", "TSA(without NAD+) / Primary screening (TSA) / delta Tm (K)": 0.27},
      {"smiles": "Cc1cccc(NS(=O)(=O)c2cccc(C(=O)OCC(=O)NC(=O)NC34CC5CC(CC(C5)C3)C4)c2)c1", "TSA(without NAD+) / Primary screening (TSA) / delta Tm (K)": 0.27},
      {"smiles": "Cc1nn(-c2ccccc2)c(C)c1CCC(=O)Nc1c(C)n(C)n(-c2ccccc2)c1=O", "TSA(without NAD+) / Primary screening (TSA) / delta Tm (K)": 0.12},
      {"smiles": "CC(C)n1cnnc1C1CCN(c2ncc(C(N)=O)cc2Cl)CC1", "TSA(without NAD+) / Primary screening (TSA) / delta Tm (K)": -0.22},
      {"smiles": "COCC(N)CN", "note": "(centres unmarked)", "TSA(without NAD+) / Primary screening (TSA) / delta Tm (K)": -0.18},
      {"smiles": "O=C1CSc2ccc(C(=O)Nc3ccc(N4CCN(Cc5ccccc5)CC4)cc3)cc2N1", "TSA(without NAD+) / Primary screening (TSA) / delta Tm (K)": -0.24},
      {"smiles": "O=C(NCc1cccnc1Oc1cccc(F)c1)N1CCOc2ccccc2C1", "TSA(without NAD+) / Primary screening (TSA) / delta Tm (K)": -0.15},
      {"smiles": "COc1ccc2cc(CNC(=O)C3=COCCO3)ccc2c1", "TSA(without NAD+) / Primary screening (TSA) / delta Tm (K)": -0.02},
      {"smiles": "CCOC(=O)c1c(C)[nH]c(C(=O)CN(C)Cc2ccc(C)cc2)c1C", "TSA(without NAD+) / Primary screening (TSA) / delta Tm (K)": -0.08},
      {"smiles": "CCCCc1ccc(N2CC(C(=O)N3CCN(c4cnccn4)CC3)CC2=O)cc1", "note": "(centres unmarked)", "TSA(without NAD+) / Primary screening (TSA) / delta Tm (K)": -0.04},
      {"smiles": "COCCNc1ncnc2ccsc12", "TSA(without NAD+) / Primary screening (TSA) / delta Tm (K)": 0.02},
      {"smiles": "CC(C)(C)OC(=O)NCCOc1cccc(NS(=O)(=O)c2ccc3c4c(cccc24)C(=O)N3)c1", "TSA(without NAD+) / Primary screening (TSA) / delta Tm (K)": 0.06},
      {"smiles": "Cc1nn(Cc2ccccc2Cl)c(C)c1-c1nc(-c2ccccc2)c(-c2ccccc2)[nH]1", "TSA(without NAD+) / Primary screening (TSA) / delta Tm (K)": -0.08},
      {"smiles": "CC(O)CNCc1cn(-c2ccccc2)nc1-c1cc2ccccc2o1", "note": "(centres unmarked)", "TSA(without NAD+) / Primary screening (TSA) / delta Tm (K)": -0.01},
      {"smiles": "O=C(c1nn(Cc2ccccc2)c(=O)c2ccccc12)N1CCN(Cc2ccncc2)CC1", "TSA(without NAD+) / Primary screening (TSA) / delta Tm (K)": -0.04},
      {"smiles": "COCCNCCCN", "TSA(without NAD+) / Primary screening (TSA) / delta Tm (K)": -0.02},
      {"smiles": "Cc1nc(N2CCN(CCN3CCCC3)CC2)c2c(-c3ccccc3)csc2n1", "TSA(without NAD+) / Primary screening (TSA) / delta Tm (K)": -0.05},
      {"smiles": "FC(F)(F)c1cc(N2CCN(Cc3nc4ccccc4[nH]3)CC2)n2ncnc2n1", "TSA(without NAD+) / Primary screening (TSA) / delta Tm (K)": -0.13},
      {"smiles": "Cc1ccc2[nH]c(C)c(CC(=O)OCC(=O)N3CCC(C(N)=O)CC3)c2c1", "TSA(without NAD+) / Primary screening (TSA) / delta Tm (K)": -0.12},
      {"smiles": "O=C(Nc1cccc(S(=O)(=O)N2CCOCC2)c1)C1c2ccccc2Oc2ccccc21", "TSA(without NAD+) / Primary screening (TSA) / delta Tm (K)": -0.13},
      {"smiles": "Cc1c(C(=O)CSc2nnc(NCc3ccco3)s2)oc2ccccc12", "TSA(without NAD+) / Primary screening (TSA) / delta Tm (K)": 0.02},
      {"smiles": "O=C1NC(=S)NC(=O)C1=Cc1ccc(-c2ccccc2)s1", "TSA(without NAD+) / Primary screening (TSA) / delta Tm (K)": -0.12},
      {"smiles": "CN(C)C(=O)c1ccccc1NC(=O)NC(C)(C)c1ccc(F)cc1", "TSA(without NAD+) / Primary screening (TSA) / delta Tm (K)": -0.27},
      {"smiles": "Cc1cc(/N=C/c2c(O)ccc3ccccc23)ccc1I", "TSA(without NAD+) / Primary screening (TSA) / delta Tm (K)": -0.14},
      {"smiles": "COc1cc(CC(=O)N2CC(C(N)=O)c3ccccc32)ccc1C", "note": "(centres unmarked)", "TSA(without NAD+) / Primary screening (TSA) / delta Tm (K)": -0.01},
      {"smiles": "COc1ccccc1C1C(C(=O)c2ccc3c(c2)OCCO3)=C(O)C(=O)N1CCCN1CCOCC1", "note": "(centres unmarked)", "TSA(without NAD+) / Primary screening (TSA) / delta Tm (K)": -0.12},
      {"smiles": "COc1cc(CN(C)C(=O)Cc2c(F)cccc2Cl)ccc1OCc1ccccc1", "TSA(without NAD+) / Primary screening (TSA) / delta Tm (K)": -0.05},
      {"smiles": "NC(=O)c1cc(NC(=O)c2ccc(-c3ccccc3F)o2)ccc1Cl", "TSA(without NAD+) / Primary screening (TSA) / delta Tm (K)": 0.06},
      {"smiles": "CC(NC(=O)CNC(=O)CNC(=O)c1cccs1)c1ccccn1", "note": "(centres unmarked)", "TSA(without NAD+) / Primary screening (TSA) / delta Tm (K)": -0.23},
      {"smiles": "COc1cc(C(C)=O)ccc1COc1ccc(C(=O)OCC(N)=O)cc1OC", "TSA(without NAD+) / Primary screening (TSA) / delta Tm (K)": 0.02},
      {"smiles": "N#CCCn1cc(C(=O)CN2CCN(C(c3ccc(F)cc3)c3ccc(F)cc3)CC2)c2ccccc21", "TSA(without NAD+) / Primary screening (TSA) / delta Tm (K)": 0.17},
      {"smiles": "NS(=O)(=O)c1ccc(Br)c(C(=O)Nc2ccc(NC(=O)CN3CCOCC3)cc2)c1", "TSA(without NAD+) / Primary screening (TSA) / delta Tm (K)": 0.07},
      {"smiles": "CN(Cc1ccc(C(N)=O)cc1)S(=O)(=O)c1ccc2c(c1)CCC2", "TSA(without NAD+) / Primary screening (TSA) / delta Tm (K)": 0.12},
      {"smiles": "CCOc1ccc(C2C(C(=O)c3cc4ccccc4o3)=C(O)C(=O)N2CCCN2CCOCC2)cc1", "note": "(centres unmarked)", "TSA(without NAD+) / Primary screening (TSA) / delta Tm (K)": -0.02},
      {"smiles": "Cc1ccc2c(Cn3nnc(-c4ccccc4)n3)cc(=O)oc2c1C", "TSA(without NAD+) / Primary screening (TSA) / delta Tm (K)": -0.17},
      {"smiles": "NCc1nc2cc(C(=O)O)ccc2[nH]1", "TSA(without NAD+) / Primary screening (TSA) / delta Tm (K)": 0.16},
      {"smiles": "CCc1nc2ccccc2n1CC(=O)N1CC(C)OCC1C", "note": "(centres unmarked)", "TSA(without NAD+) / Primary screening (TSA) / delta Tm (K)": 0.12},
      {"smiles": "CCCOc1ccc(C2C(C(=O)c3sc(C)nc3C)=C(O)C(=O)N2CCCN2CCOCC2)cc1", "note": "(centres unmarked)", "TSA(without NAD+) / Primary screening (TSA) / delta Tm (K)": -0.18},
      {"smiles": "CCOc1ccc(C(=O)C2=C(O)C(=O)N(CCN3CCOCC3)C2c2ccc(OCC)cc2)cc1", "note": "(centres unmarked)", "TSA(without NAD+) / Primary screening (TSA) / delta Tm (K)": -0.31},
      {"smiles": "CC(CN)CCO", "note": "(centres unmarked)", "TSA(without NAD+) / Primary screening (TSA) / delta Tm (K)": -0.23},
      {"smiles": "CCC(C)C(O)CN", "note": "(centres unmarked)", "TSA(without NAD+) / Primary screening (TSA) / delta Tm (K)": -0.08}
    ]}
  ]
}
